The text below walks through data of patent US20050256051A1, “Nuclear receptor-mediated introduction of a PNA into cell nuclei” (The Population Council, Inc., priority 2001, published 2005).

In one data set the test system is LNCaP cells. The experiment in a line: Cellular localization of rhodaminated PNAs by confocal fluorescence/phase contrast microscopy in LNCaP cells. Format: cell-based, human. The note with it: 2 μM, 24 h.
The subject of the next data set is DU145 cells. The experiment in a line: Cellular localization of rhodaminated PNAs by confocal fluorescence/phase contrast microscopy in DU145 cells. Type of data set: cell-based, human. The note with it: 2 μM; for cellular localization of fluorescence: 24 h, confocal microscopy.

Molecules are shown by their SMILES.

Turning to `CCN(CC)c1ccc2c(-c3ccccc3C(=O)NCCCC[C@H](NC(=O)COCCOCCNC(=O)CN(CCNC(=O)CN(CCNC(=O)CN(CCNC(=O)CN(CCNC(=O)CN(CCNC(=O)CN(CCNC(=O)CN(CCNC(=O)CN(CCNC(=O)CN(CCNC(=O)CN(CCNC(=O)CN(CCNC(=O)CN(CCNC(=O)CN(CCNC(=O)CN(CCNC(=O)CN(CCNC(=O)CN(CCNC(=O)CN(CCN)C(=O)Cn3cc(C)c(=O)[nH]c3=O)C(=O)Cn3ccc(N)nc3=O)C(=O)Cn3cnc4c(N)ncnc43)C(=O)Cn3cnc4c(N)ncnc43)C(=O)Cn3ccc(N)nc3=O)C(=O)Cn3cnc4c(=O)[nH]c(N)nc43)C(=O)Cn3cc(C)c(=O)[nH]c3=O)C(=O)Cn3cc(C)c(=O)[nH]c3=O)C(=O)Cn3cnc4c(N)ncnc43)C(=O)Cn3cnc4c(=O)[nH]c(N)nc43)C(=O)Cn3ccc(N)nc3=O)C(=O)Cn3cc(C)c(=O)[nH]c3=O)C(=O)Cn3cc(C)c(=O)[nH]c3=O)C(=O)Cn3ccc(N)nc3=O)C(=O)Cn3cnc4c(N)ncnc43)C(=O)Cn3ccc(N)nc3=O)C(=O)Cn3ccc(N)nc3=O)C(=O)NCC(N)=O)c3ccc(=[N+](CC)CC)cc-3oc2c1` [PNA-mycwt-R], the “cellular localization of fluorescence” value in the data set with LNCaP cells is “cytoplasmic localization”; in the data set on LNCaP cells (listed as PNAmyc-R) it was “only in the cytoplasm”; in the data set on DU145 cells, “entirely cytoplasmic”; with DU145 cells (listed as PNAmyc-R), “only in the cytoplasm”.

In the case of `CCN(CC)c1ccc2c(-c3ccccc3C(=O)NCCCC[C@H](NC(=O)COCCOCCNC(=O)CN(CCNC(=O)CN(CCNC(=O)CN(CCNC(=O)CN(CCNC(=O)CN(CCNC(=O)CN(CCNC(=O)CN(CCNC(=O)CN(CCNC(=O)CN(CCNC(=O)CN(CCNC(=O)CN(CCNC(=O)CN(CCNC(=O)CN(CCNC(=O)CN(CCNC(=O)CN(CCNC(=O)CN(CCNC(=O)CN(CCNC(=O)COCCOCCNC(=O)CCC(=O)O[C@H]3CC[C@H]4[C@@H]5CC[C@H]6CC(=O)CC[C@]6(C)[C@H]5CC[C@]34C)C(=O)Cn3cc(C)c(=O)[nH]c3=O)C(=O)Cn3ccc(N)nc3=O)C(=O)Cn3cnc4c(N)ncnc43)C(=O)Cn3cnc4c(N)ncnc43)C(=O)Cn3ccc(N)nc3=O)C(=O)Cn3cnc4c(=O)[nH]c(N)nc43)C(=O)Cn3cc(C)c(=O)[nH]c3=O)C(=O)Cn3cc(C)c(=O)[nH]c3=O)C(=O)Cn3cnc4c(N)ncnc43)C(=O)Cn3cnc4c(=O)[nH]c(N)nc43)C(=O)Cn3ccc(N)nc3=O)C(=O)Cn3cc(C)c(=O)[nH]c3=O)C(=O)Cn3cc(C)c(=O)[nH]c3=O)C(=O)Cn3ccc(N)nc3=O)C(=O)Cn3cnc4c(N)ncnc43)C(=O)Cn3ccc(N)nc3=O)C(=O)Cn3ccc(N)nc3=O)C(=O)NCC(N)=O)c3ccc(=[N+](CC)CC)cc-3oc2c1` [PNA-mycwt-TR], the “cellular localization of fluorescence” value in the data set on LNCaP cells was “clearly detectable in the cell nuclei”; with LNCaP cells (listed as PNAmyc-TR), “in nuclei as well as in cytoplasm”; in the data set on DU145 cells, “entirely cytoplasmic”; with DU145 cells (listed as PNAmyc-TR) it was “minimal and exclusively cytoplasmic”. For the same molecule, the “fluorescence compared with matching PNA-mycwt-R” value with DU145 cells is listed as “far weaker”.
